Test results from patent US20250134790A1, “ANTIMICROBIAL COMPOSITIONS” (Firmenich SA, priority 2021, published 2025).
Some results were stated once for a whole list of compounds, not compound by compound. At least one structure is not confirmed: it was looked up by name or label, or the drawing left a doubt.

The compounds below were run on E. coli ATCC 10536 (assay: Bacterial contact time (BCT) test of perfume ingredients in 20% ethanol solutions (EN-1276 based)). Details: less than or equal to 0.1% (w/v) perfume ingredient in ethanol solution; contact time 45 s.
Type: cell-based, Escherichia coli
With `CCCCOC(=O)C(C)OC(=O)CCC` (centres unmarked) [1-butoxycarbonylethyl butanoate] the “bactericidal activity in ethanol solutions” value (“bactericidal activity” for short) was “high bactericidal activity (at least a 5.5 log reduction in bacterial viability at less than or equal to 0.1% (w/v) of the bactericidal perfume ingredients in ethanol solution)”. With `CC(C)=CCC/C(C)=C/C=O` [(E)-3,7-dimethyl-2,6-octadienal] the “bactericidal activity” value was “high bactericidal activity (at least a 5.5 log reduction in bacterial viability at less than or equal to 0.1% (w/v) of the bactericidal perfume ingredients in ethanol solution)”. In the case of `CCCC(=O)OCc1ccccc1` [benzyl butanoate], the “bactericidal activity” value is reported as “high bactericidal activity (at least a 5.5 log reduction in bacterial viability at less than or equal to 0.1% (w/v) of the bactericidal perfume ingredients in ethanol solution)”. With `CC(C)CC(O)CC(C)C` [2,6-dimethyl-4-heptanol] the “bactericidal activity” value was “high bactericidal activity (at least a 5.5 log reduction in bacterial viability at less than or equal to 0.1% (w/v) of the bactericidal perfume ingredients in ethanol solution)”. `CC1=CC(C)C(C)C(C=O)C1` (centres unmarked) [3,5,6-trimethyl-3-cyclohexene-1-carbaldehyde] was tested, and the “bactericidal activity” value was “high bactericidal activity (at least a 5.5 log reduction in bacterial viability at less than or equal to 0.1% (w/v) of the bactericidal perfume ingredients in ethanol solution)”. With `CC1=CCC(C(C)CCO)CC1` (centres unmarked) [3-[4-methyl-3-cyclohexen-1-yl]-1-butanol] the “bactericidal activity” value was “high bactericidal activity (at least a 5.5 log reduction in bacterial viability at less than or equal to 0.1% (w/v) of the bactericidal perfume ingredients in ethanol solution)”. For `CCCCCCCCCCC=O` [undecanal], the “bactericidal activity” value was “high bactericidal activity (at least a 5.5 log reduction in bacterial viability at less than or equal to 0.1% (w/v) of the bactericidal perfume ingredients in ethanol solution)”. With `CC1=CC(C)C(CO)C(C)C1` (centres unmarked) [2,4,6-trimethyl-3-cyclohexene-1-methanol] the “bactericidal activity” value was “high bactericidal activity (at least a 5.5 log reduction in bacterial viability at less than or equal to 0.1% (w/v) of the bactericidal perfume ingredients in ethanol solution)”. In the case of `C=C/C(C)=C\CC1OC1(C)C` (centres unmarked) [(2,2-dimethyl-3-[(2Z)-3-methyl-2,4-pentadien-1-yl]oxirane], the “bactericidal activity” value is reported as “high bactericidal activity (at least a 5.5 log reduction in bacterial viability at less than or equal to 0.1% (w/v) of the bactericidal perfume ingredients in ethanol solution)”. In the case of `CCCCC/C=C\CCC=O` [(Z)-4-decenal], the “bactericidal activity” value is reported as “high bactericidal activity (at least a 5.5 log reduction in bacterial viability at less than or equal to 0.1% (w/v) of the bactericidal perfume ingredients in ethanol solution)”. For `CC1CCC(C(C)(C)S)C(=O)C1` (centres unmarked) [8-mercapto-3-p-menthanone], the “bactericidal activity” value was “high bactericidal activity (at least a 5.5 log reduction in bacterial viability at less than or equal to 0.1% (w/v) of the bactericidal perfume ingredients in ethanol solution)”. For `Cc1c[nH]c2ccccc12` [3-methylindole], the “bactericidal activity” value was “high bactericidal activity (at least a 5.5 log reduction in bacterial viability at less than or equal to 0.1% (w/v) of the bactericidal perfume ingredients in ethanol solution)”. `C/C=C/c1ccc(O)c(OC)c1` [2-methoxy-4-[(1E)-1-propen-1-yl]phenol] was tested, and the “bactericidal activity” value was “high bactericidal activity (at least a 5.5 log reduction in bacterial viability at less than or equal to 0.1% (w/v) of the bactericidal perfume ingredients in ethanol solution)”. With `CC(C)=CCC/C(C)=C\C=O` [(Z)-3,7-dimethyl-2,6-octadienal] the “bactericidal activity” value was “high bactericidal activity (at least a 5.5 log reduction in bacterial viability at less than or equal to 0.1% (w/v) of the bactericidal perfume ingredients in ethanol solution)”. For `C/C=C\C(C)(O)CCC=C(C)C` (centres unmarked) [(2Z)-4,8-dimethyl-2,7-nonadien-4-ol], the “bactericidal activity” value was “high bactericidal activity (at least a 5.5 log reduction in bacterial viability at less than or equal to 0.1% (w/v) of the bactericidal perfume ingredients in ethanol solution)”. With `CC(C)=CCC/C(C)=C/CO` [(E)-3,7-dimethyl-2,6-octadien-1-ol] the “bactericidal activity” value was “high bactericidal activity (at least a 5.5 log reduction in bacterial viability at less than or equal to 0.1% (w/v) of the bactericidal perfume ingredients in ethanol solution)”. For `CCCCCCC1CCCC(=O)O1` (centres unmarked) [6-hexyltetrahydro-2H-pyran-2-one], the “bactericidal activity” value was “high bactericidal activity (at least a 5.5 log reduction in bacterial viability at less than or equal to 0.1% (w/v) of the bactericidal perfume ingredients in ethanol solution)”. `Cc1ccc2c(c1)CC(C)(CO)C2` (centres unmarked) [2,5-dimethyl-2-indanmethanol] was tested, and the “bactericidal activity” value was “high bactericidal activity (at least a 5.5 log reduction in bacterial viability at less than or equal to 0.1% (w/v) of the bactericidal perfume ingredients in ethanol solution)”. In the case of `CCCCC(CC)CO` (centres unmarked) [2-ethyl-1-hexanol], the “bactericidal activity” value is reported as “high bactericidal activity (at least a 5.5 log reduction in bacterial viability at less than or equal to 0.1% (w/v) of the bactericidal perfume ingredients in ethanol solution)”. In the case of `CC(C)=CCCC(C)CC#N` (centres unmarked) [3,7-dimethyl-6-octenenitrile], the “bactericidal activity” value is reported as “high bactericidal activity (at least a 5.5 log reduction in bacterial viability at less than or equal to 0.1% (w/v) of the bactericidal perfume ingredients in ethanol solution)”. For `CC(=CC=O)CCC(C)=C(C)C` [3,6,7-trimethyl-2,6-octadienal], the “bactericidal activity” value was “high bactericidal activity (at least a 5.5 log reduction in bacterial viability at less than or equal to 0.1% (w/v) of the bactericidal perfume ingredients in ethanol solution)”. `CCCc1ccc2c(c1)OC(C(C)=O)O2` (centres unmarked) [1-(5-propyl-1,3-benzodioxol-2-yl)ethenone] was tested, and the “bactericidal activity” value was “high bactericidal activity (at least a 5.5 log reduction in bacterial viability at less than or equal to 0.1% (w/v) of the bactericidal perfume ingredients in ethanol solution)”. For `CC1C2CC(CC2C2CCC(O)CC2)C1(C)C` (centres unmarked) [4-(5,5,6-trimethylbicyclo[2.2.1]hept-2-yl)-1-cyclohexanol], the “bactericidal activity” value was “high bactericidal activity (at least a 5.5 log reduction in bacterial viability at less than or equal to 0.1% (w/v) of the bactericidal perfume ingredients in ethanol solution)”. `C=CC(C)(O)CCCC(C)C` (centres unmarked) [3,7-dimethyl-1-octen-3-ol] was tested, and the “bactericidal activity” value was “high bactericidal activity (at least a 5.5 log reduction in bacterial viability at less than or equal to 0.1% (w/v) of the bactericidal perfume ingredients in ethanol solution)”. `O=C1CC/C=C\CC/C=C/CCC1` [(4Z,8E)-4,8-cyclododecadien-1-one] was tested, and the “bactericidal activity” value was “high bactericidal activity (at least a 5.5 log reduction in bacterial viability at less than or equal to 0.1% (w/v) of the bactericidal perfume ingredients in ethanol solution)”. For `CCCCCCC(CCOC(C)=O)OC(C)=O` (centres unmarked) [1,3-nonanediyl diacetate], the “bactericidal activity” value was “high bactericidal activity (at least a 5.5 log reduction in bacterial viability at less than or equal to 0.1% (w/v) of the bactericidal perfume ingredients in ethanol solution)”. For `C/C(=C\c1ccc(C)cc1)CCC=O` [(4E)-4-methyl-5-(4-methylphenyl)-4-pentenal], the “bactericidal activity” value was “high bactericidal activity (at least a 5.5 log reduction in bacterial viability at less than or equal to 0.1% (w/v) of the bactericidal perfume ingredients in ethanol solution)”. `CC(C)=CCC/C(C)=C\CO` [(Z)-3,7-dimethyl-2,6-octadien-1-ol] was tested, and the “bactericidal activity” value was “high bactericidal activity (at least a 5.5 log reduction in bacterial viability at less than or equal to 0.1% (w/v) of the bactericidal perfume ingredients in ethanol solution)”. With `CC(CCO)CC(C)(C)C` (centres unmarked) [3,5,5-trimethyl-1-hexanol] the “bactericidal activity” value was “high bactericidal activity (at least a 5.5 log reduction in bacterial viability at less than or equal to 0.1% (w/v) of the bactericidal perfume ingredients in ethanol solution)”. For `CCOC(=O)c1ccccc1O` [ethyl 2-hydroxybenzoate], the “bactericidal activity” value was “high bactericidal activity (at least a 5.5 log reduction in bacterial viability at less than or equal to 0.1% (w/v) of the bactericidal perfume ingredients in ethanol solution)”. For `CC1C2CC(CC2C2CCCCC2O)C1(C)C` (centres unmarked) [2-(5,5,6-trimethylbicyclo[2.2.1]hept-2-yl)-1-cyclohexanol], the “bactericidal activity” value was “high bactericidal activity (at least a 5.5 log reduction in bacterial viability at less than or equal to 0.1% (w/v) of the bactericidal perfume ingredients in ethanol solution)”. `CC(CCO)CCc1ccccc1` (centres unmarked) [3-methyl-5-phenyl-1-pentanol] was tested, and the “bactericidal activity” value was “high bactericidal activity (at least a 5.5 log reduction in bacterial viability at less than or equal to 0.1% (w/v) of the bactericidal perfume ingredients in ethanol solution)”. For `Cc1ccc(C(C)C)c(O)c1` [thymol], the “bactericidal activity” value was “high bactericidal activity (at least a 5.5 log reduction in bacterial viability at less than or equal to 0.1% (w/v) of the bactericidal perfume ingredients in ethanol solution)”. For `CC(=O)OC(C)c1ccccc1` (centres unmarked) [1-phenylethyl acetate], the “bactericidal activity” value was “high bactericidal activity (at least a 5.5 log reduction in bacterial viability at less than or equal to 0.1% (w/v) of the bactericidal perfume ingredients in ethanol solution)”. In the case of `CCCCCC1COCCC1OC(C)=O` (centres unmarked) [tetrahydro-3-pentyl-4(2H)-pyranyl acetate], the “bactericidal activity” value is reported as “high bactericidal activity (at least a 5.5 log reduction in bacterial viability at less than or equal to 0.1% (w/v) of the bactericidal perfume ingredients in ethanol solution)”. `C/C(=C\c1ccc(C)cc1)CO` [(2E)-2-methyl-3-(4-methylphenyl)-2-propen-1-ol] was tested, and the “bactericidal activity” value was “high bactericidal activity (at least a 5.5 log reduction in bacterial viability at less than or equal to 0.1% (w/v) of the bactericidal perfume ingredients in ethanol solution)”. In the case of `CC12CCC(C1)C(C)(C)C2O` (centres unmarked) [(1,3,3-trimethylbicyclo[2.2.1]heptan-2-ol], the “bactericidal activity” value is reported as “high bactericidal activity (at least a 5.5 log reduction in bacterial viability at less than or equal to 0.1% (w/v) of the bactericidal perfume ingredients in ethanol solution)”. For `CCCCCCCC=O` [Octanal, octanal], the “bactericidal activity” value was “high bactericidal activity (at least a 5.5 log reduction in bacterial viability at less than or equal to 0.1% (w/v) of the bactericidal perfume ingredients in ethanol solution)”.
